The target of assay [1] is TATA-binding protein (human) (UniProt P20226). As to the kind of experiment: single-molecule FRET of TBP-induced bending of promoter DNA.
The target is the same in assay [2]. The assay is described as above. The source holds these as a separate data set.

By UniProt entry, the sequences of proteins in these tests, tags left out.
UniProt P20226: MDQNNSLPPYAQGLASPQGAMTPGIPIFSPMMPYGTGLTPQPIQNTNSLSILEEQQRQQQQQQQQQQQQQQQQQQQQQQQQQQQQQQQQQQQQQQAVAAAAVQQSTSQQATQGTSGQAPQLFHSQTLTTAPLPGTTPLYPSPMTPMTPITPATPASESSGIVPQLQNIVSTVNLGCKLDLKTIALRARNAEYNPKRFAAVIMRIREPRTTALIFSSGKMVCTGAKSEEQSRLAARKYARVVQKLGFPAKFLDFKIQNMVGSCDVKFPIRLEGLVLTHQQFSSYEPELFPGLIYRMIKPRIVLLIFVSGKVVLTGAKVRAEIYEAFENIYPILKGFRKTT
UniProt Q00403: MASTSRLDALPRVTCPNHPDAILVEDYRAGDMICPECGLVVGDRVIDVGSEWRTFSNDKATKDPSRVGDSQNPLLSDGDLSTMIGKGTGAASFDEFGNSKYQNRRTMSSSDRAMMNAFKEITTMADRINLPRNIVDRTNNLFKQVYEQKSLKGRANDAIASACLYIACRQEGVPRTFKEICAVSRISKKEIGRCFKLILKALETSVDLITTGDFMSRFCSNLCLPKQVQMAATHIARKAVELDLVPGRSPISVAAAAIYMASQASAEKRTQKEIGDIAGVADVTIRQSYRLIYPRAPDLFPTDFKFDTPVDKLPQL

Where two headings read alike, the source gives them in different places. Results are given in words; binding and its absence hold for the method and conditions named. Some entries that bind do so weakly or less than the wild type.

As to “transcription factor (TF) IIB (from UniProt Q00403 1-316)”, in assay [1], the binding entry is “binds”.

B1: N-terminal Bdp1 variant that encompasses residues 130-484 (domain or fragment, UniProt A6H8Y1 130-484)
chain: ATSTKEKQPCSDRYRIYKAQKLREMLKEELRKEKKQWKNKYAINESQRPPDRSKMTMRDFIYYLPDNNPMTSSLEQEKKTEKPSTPVQTREQEGKSTPNAEDNEMEEETDDGPLLVPRVKVAEDGSIILDEESLTVEVLRTKGPCVVEENDPIFERGSTTTYSSFRKNYYSKPWSNKETDMFFLAISMVGTDFSMIGQLFPHRARIEIKNKFKREEKTNGWRIDKAFQEKRPFDFDFFAHLLQKVLAEEEKRKQKSVKNHSLKEKKSTKPRKNVKVKKVACEGVNNDPDESMSSRISDTERSQKDAQTVEEESLTLSREDAEQVALEVDLNQKKRRRKKQDGANELGVNNLLENA
For B1, the binding entry in assay [2] is on record as “binds”.

The record behind these values is article doi:10.1101/775528.
